Data reported in PMC10970676.
Results are given in words; binding and its absence hold for the method and conditions named. Binding can be weak; no strength is given. Values belong to the binder of their own block, whether it stands above or below them.

Molecular target: NtGPX8a (Nicotiana tabacum glutathione peroxidase 8a) (N. tabacum (variety TN90))
Assay: two-hybrid; bait pGBKT7::NtGPX8a, prey pGADT7::Trx, co-transformed into Y2H Gold yeast; growth spotted on DDO, TDO (SD/-Leu-Trp-His) and QDO (SD/-Leu-Trp-His-Ade) plates, 30 °C, 2-3 days

binding: binds
B1: AtTrxz (Arabidopsis thioredoxin z, AT3G06730) (protein, UniProt Q9M7X9 1-183)
chain: MALVQSRTFPHLNTPLSPILSSLHAPSSLFIRREIRPVAAPFSSSTAGNLPFSPLTRPRKLLCPPPRGKFVREDYLVKKLSAQELQELVKGDRKVPLIVDFYATWCGPCILMAQELEMLAVEYESNAIIVKVDTDDEYEFARDMQVRGLPTLFFISPDPSKDAIRTEGLIPLQMMHDIIDNEM

binding: binds
B2: AtTrxm2 (Arabidopsis thioredoxin m2, AT4G03520) (protein, UniProt Q9SEU8 1-186)
chain: MAAFTCTSRPPISLRSETRIVSSSPSASSLSSRRMFAVLPESSGLRIRLSLSPASLTSIHQPRVSRLRRAVVCEAQETTTDIQVVNDSTWDSLVLKATGPVVVDFWAPWCGPCKMIDPLVNDLAQHYTGKIKFYKLNTDESPNTPGQYGVRSIPTIMIFVGGEKKDTIIGAVPKTTLTSSLDKFLP
